Experimental data published in ChEMBL document CHEMBL4303122, “Identification of potential treatments for COVID-19 through artificial intelligence-enabled phenomic analysis of human cells infected with SARS-CoV-2” (2020).
Where a name gives a salt, the structure may show the parent alone. The full ranking holds about 1,600 compounds; the median of “Hit score” is about 0.13, and the highest 2% start at about 0.46. This is one part of the list.

System: SARS-CoV-2
Experiment: Antiviral activity against SARS-CoV-2 (USA-WA1/2020 strain) measured by imaging in HRCE cells at MOI 0.4 after 96 hrs (reported as hit score from 0-1 for on-disease vs off-disease activity: scores >0.6 considered hits)
Type: functional, Homo sapiens

| Structure (SMILES) | Hit score |
| --- | --- |
| CC(CN(C)C)CN1c2ccccc2Sc2ccccc21 (stereo not drawn) [METHYLPROMAZINE] | 0.07799 |
| N=C(N)NCCN1CCCCCCC1 [GUANETHIDINE] | 0.1165 |
| O=c1[nH]c2ccccc2n1C1CCN(CCCC(c2ccc(F)cc2)c2ccc(F)cc2)CC1 [PIMOZIDE] | 0.09909 |
| CC(C)(C)C(=O)OCC(=O)[C@H]1CC[C@H]2[C@@H]3CCC4=CC(=O)CC[C@]4(C)[C@H]3CC[C@]12C [DESOXYCORTICOSTERONE PIVALATE] | 0.2223 |
| CC(C)(C)[C@H]1CC[C@H](CC2=C(O)C(=O)c3ccccc3C2=O)CC1 [BUPARVAQUONE] | 0.02451 |
| CCN(CC)CCOCCOC(=O)C(CC)(CC)c1ccccc1 [OXELADIN] | 0.254 |
| CC(C)C[C@H](NC(=O)CNC(=O)c1cc(Cl)ccc1Cl)B1OC(=O)C(CC(=O)O)(CC(=O)O)O1 [IXAZOMIB CITRATE] | -0.05941 |
| C#C[C@]1(O)CC[C@H]2[C@@H]3CCC4=Cc5oncc5C[C@]4(C)[C@H]3CC[C@@]21C [DANAZOL] | 0.2899 |
| CN(C)C(=O)Oc1ccc[n+](C)c1 [PYRIDOSTIGMINE] | 0.002406 |
| Cc1cc(N)c2ccccc2[n+]1CCCCCCCCCC[n+]1c(C)cc(N)c2ccccc21 | -0.1244 |
| COc1cc(N2CCC(N3CCN(C)CC3)CC2)ccc1Nc1ncc(Cl)c(Nc2ccccc2P(C)(C)=O)n1 [BRIGATINIB] | 0.1463 |
| CCOC(=O)[C@H](CCc1ccccc1)N[C@@H](C)C(=O)N1[C@H](C(=O)O)C[C@H]2CCCC[C@@H]21 [TRANDOLAPRIL] | 0.3202 |
| COC(=O)Nc1nc2cc([S+]([O-])c3ccccc3)ccc2[nH]1 (stereo not drawn) [OXFENDAZOLE] | 0.1975 |
| O=C(NC1CCN(CCc2c[nH]c3ccccc23)CC1)c1ccccc1 [INDORAMIN] | 0.08748 |
| NC1CCN(c2nc3c(cc2F)c(=O)c(C(=O)O)cn3-c2ccc(F)cc2F)C1 (stereo not drawn) [TOSUFLOXACIN] | 0.08835 |
| CCCOc1ccc(S(=O)(=O)N2CCN(CCO)CC2)cc1-c1nc2c(CCC)cn(CC)c2c(=O)[nH]1 [MIRODENAFIL] | 0.1469 |
| C#CCN(C)[C@H](C)Cc1ccccc1 [SELEGILINE] | 0.3132 |
| CCNC1=Nc2ccc(Cl)cc2C(C)(c2ccccc2)O1 (stereo not drawn) [ETIFOXINE] | 0.1787 |
| CC[C@H]1[C@@H](O)[C@@H]2[C@H](CC[C@]3(C)[C@@H]([C@H](C)CCC(=O)O)CC[C@@H]23)[C@@]2(C)CC[C@@H](O)C[C@@H]12 [OBETICHOLIC ACID] | 0.5073 |
| Cc1cnc(C(=O)N[C@H]2CCCCC/C=C\[C@@H]3C[C@@]3(C(=O)NS(=O)(=O)C3CC3)NC(=O)[C@@H]3C[C@@H](Oc4nc5ccccc5c5ccccc45)CN3C2=O)cn1 | 0.151 |
| COc1c(N2CCNC(C)C2)c(F)cc2c(=O)c(C(=O)O)cn(C3CC3)c12 (stereo not drawn) [GATIFLOXACIN] | 0.1144 |

| Structure (SMILES) | Hit score |
| --- | --- |
| O=C(c1ccccc1)c1ccc2n1CCC2C(=O)O (stereo not drawn) [KETOROLAC] | 0.2356 |
| CC(C)n1c(/C=C/C(O)CC(O)CC(=O)[O-])c(-c2ccc(F)cc2)c2ccccc21.[Na+] (stereo not drawn) [FLUVASTATIN SODIUM] | 0.0921 |
| C#CCC(Cc1cnc2nc(N)nc(N)c2n1)c1ccc(C(=O)N[C@@H](CCC(=O)O)C(=O)O)cc1 (stereo partly drawn) [PRALATREXATE] | 0.06018 |
| CCN(CC)CCOc1ccc2c(c1)C(=O)c1cc(OCCN(CC)CC)ccc1-2.Cl.Cl [TILORONE HYDROCHLORIDE] | 0.04106 |
| O=C(C[S+]([O-])Cc1ccco1)NC/C=C\COc1cc(CN2CCCCC2)ccn1 (stereo not drawn) [LAFUTIDINE] | 0.2245 |
| CN(C)CC(c1ccc(O)cc1)C1(O)CCCCC1 (stereo not drawn) [DESVENLAFAXINE] | 0.0828 |
| NC(=O)[C@@H]1CCCN1C(=O)[C@H](Cc1c[nH]cn1)NC(=O)[C@@H]1CCC(=O)N1 [PROTIRELIN] | 0.04354 |
| C[C@]12C=CC(=O)N[C@@H]1CC[C@@H]1[C@@H]2CC[C@]2(C)[C@@H](C(=O)Nc3cc(C(F)(F)F)ccc3C(F)(F)F)CC[C@@H]12 [DUTASTERIDE] | 0.3162 |
| Cc1ccc(/C=C2\CNC/C(=C\c3ccc(C)cc3)C2=O)cc1.Cl | 0.05741 |
| CCC(=O)OCC(=O)[C@@]1(OC(=O)CC)[C@H](C)C[C@H]2[C@H]3[C@H]([C@@H](O)C[C@@]21C)[C@@]1(C)C=CC(=O)C=C1C[C@H]3Cl [ALCLOMETASONE DIPROPIONATE] | 0.08294 |
| C[C@H]1C[C@@H]2[C@H]([C@@H](O)C[C@@]3(C)[C@H]2CC[C@]3(O)C(=O)CO)[C@@]2(C)C=CC(=O)C=C12 [METHYLPREDNISOLONE] | 0.1629 |
| O=C1NC(=O)C(c2ccccc2)(c2ccccc2)N1 [PHENYTOIN] | 0.2216 |
| CCN[C@@H]1C[C@H](N)[C@@H](O[C@H]2OC(CN)=CC[C@H]2N)[C@H](O)[C@H]1O[C@H]1OC[C@](C)(O)[C@H](NC)[C@H]1O [NETILMICIN] | 0.12 |
| CC[C@H](C)C(=O)O[C@H]1C[C@H](O)C=C2C=C[C@H](C)[C@H](CC[C@@H](O)C[C@@H](O)CC(=O)O)[C@H]21 [PRAVASTATIN] | 0.1363 |
| CN(C)C/C=C/C(=O)Nc1cc2c(Nc3ccc(F)c(Cl)c3)ncnc2cc1O[C@H]1CCOC1 [AFATINIB] | -0.1413 |
| C=CCOc1ccccc1OCC(O)CNC(C)C (stereo not drawn) [OXPRENOLOL] | 0.08363 |
| O=C(/C=C/c1cccc(S(=O)(=O)Nc2ccccc2)c1)NO [BELINOSTAT] | -0.02011 |
| CC(C)(C)c1cc(NC(=O)Nc2ccc(-c3cn4c(n3)sc3cc(OCCN5CCOCC5)ccc34)cc2)no1 [QUIZARTINIB] | -0.1028 |
| COc1cc2nc(N3CCN(C(=O)C4COc5ccccc5O4)CC3)nc(N)c2cc1OC (stereo not drawn) [DOXAZOSIN] | 0.04875 |
| CNC(=O)c1ccc(N2C(=S)N(c3ccc(C#N)c(C(F)(F)F)c3)C(=O)C2(C)C)cc1F [ENZALUTAMIDE] | 0.1121 |
| CCN(CC)C(=O)Nc1ccc(OCC(O)CNC(C)(C)C)c(C(C)=O)c1 (stereo not drawn) [CELIPROLOL] | 0.5089 |

| Structure (SMILES) | Hit score |
| --- | --- |
| CCN(CC)CCOCCOC(=O)C1(c2ccccc2)CCCC1 [CARBETAPENTANE] | 0.04213 |
| CC#CCn1c(N2CCC[C@@H](N)C2)nc2c1c(=O)n(Cc1nc(C)c3ccccc3n1)c(=O)n2C [LINAGLIPTIN] | 0.0767 |
| CC(C)(CO)[C@@H](O)C(=O)NCCC(=O)O [PANTOTHENIC ACID] | 0.1559 |
| CCN(CCCCOC(=O)c1ccc(OC)c(OC)c1)C(C)Cc1ccc(OC)cc1 (stereo not drawn) [MEBEVERINE] | 0.1457 |
| C[C@H]1NCc2cc(-c3ccc4c(=O)c(C(=O)O)cn(C5CC5)c4c3OC(F)F)ccc21 [GARENOXACIN] | 0.1309 |
| Nc1nc(=O)n([C@@H]2CS[C@H](CO)O2)cc1F [EMTRICITABINE] | 0.1635 |
| Cc1onc(-c2c(Cl)cccc2Cl)c1C(=O)N[C@@H]1C(=O)N2[C@@H]1SC(C)(C)[C@@H]2C(=O)O [DICLOXACILLIN] | 0.1116 |
| CC(O)c1cc(C(=O)N[C@@H](C)Cn2ccc(-c3ccc(C#N)c(Cl)c3)n2)n[nH]1 (stereo partly drawn) [DAROLUTAMIDE] | 0.2258 |
| CCN(CC)C(=O)N[C@H]1C[C@@H]2c3cccc4[nH]cc(c34)C[C@H]2N(C)C1 [TERGURIDE] | 0.113 |
| CO[C@H]1C[C@@H]2CC[C@@H](C)[C@@](O)(O2)C(=O)C(=O)N2CCCC[C@H]2C(=O)O[C@H]([C@H](C)C[C@@H]2CC[C@@H](O)[C@H](OC)C2)CC(=O)[C@H](C)/C=C(\C)[C@@H](O)[C@@H](OC)C(=O)[C@H](C)C[C@H](C)/C=C/C=C/C=C/1C [SIROLIMUS] | 0.6828 |
| CC(=O)OCC1=C(C(=O)O)N2C(=O)[C@@H](NC(=O)Cc3cccs3)[C@H]2SC1 [CEPHALOTHIN] | 0.1524 |
| Cc1nc(C(=O)NCC(=O)O)c(O)c2ccc(Oc3ccccc3)cc12 [ROXADUSTAT] | 0.4477 |
| COc1cc(NS(=O)(=O)c2ccc(N)cc2)ncn1 [SULFAMONOMETHOXINE] | 0.1552 |
| CN(C(=O)CN(CCO)CC(=O)N(C)C(C)(C)Cc1ccccc1)C(C)(C)Cc1ccccc1 [OXETHAZAINE] | -0.01116 |
| CC(C)(Oc1ccc(Cl)cc1)C(=O)OCCOC(=O)c1cccnc1 [ETOFIBRATE] | 0.05283 |
| COC(=O)N/N=C/c1c[n+]([O-])c2ccccc2[n+]1[O-] [CARBADOX] | 0.1317 |
| O=C(Nc1cnn2ccc(N3CCC[C@@H]3c3cc(F)ccc3F)nc12)N1CC[C@H](O)C1 [LAROTRECTINIB] | 0.1325 |
| CN1CCN2c3ncccc3Cc3ccccc3C2C1 (stereo not drawn) [MIRTAZAPINE] | 0.02738 |
| CC(C)[C@H](N)C(=O)OCCOCn1cnc2c(=O)nc(N)[nH]c21 [VALACYCLOVIR] | 0.03059 |
| CC1=NN(c2ccc(C)c(C)c2)C(=O)/C1=N\Nc1cccc(-c2cccc(C(=O)O)c2)c1O [ELTROMBOPAG] | 0.1261 |
| COC(=O)[C@@H]1CC2=CC(=O)CC[C@]2(C)[C@@]23O[C@@H]2C[C@@]2(C)[C@@H](CC[C@@]24CCC(=O)O4)[C@H]13 [EPLERENONE] | 0.07583 |

Not a retest: an excerpt of the list.

| Structure (SMILES) | Hit score |
| --- | --- |
| CC(C)[C@H](N)C(=O)OCCOCn1cnc2c(=O)nc(N)[nH]c21 [VALACYCLOVIR] | 0.03059 |
| CC1=NN(c2ccc(C)c(C)c2)C(=O)/C1=N\Nc1cccc(-c2cccc(C(=O)O)c2)c1O [ELTROMBOPAG] | 0.1261 |
| COC(=O)[C@@H]1CC2=CC(=O)CC[C@]2(C)[C@@]23O[C@@H]2C[C@@]2(C)[C@@H](CC[C@@]24CCC(=O)O4)[C@H]13 [EPLERENONE] | 0.07583 |
